From the supplement of paper PMC7877785
± gives the uncertainty stated by the source. Many of these values have a large error.

Assay: self-splicing fitness, log relative to wild type (ln ratio); higher = more splicing; Tetrahymena group I intron in knt gene, E. coli kanamycin selection, DiMSum; sequences stand for … in CUCUCU…GGAGGGAAAAGUUAUCAGGCAUGCACCUGGUAGCUAGUCUUUAAACCAAUAGAUUGCAUCGGUUUAAAAGGCAAGACCGUCAAAUUGCGGGAAAGGGGUCAACAGCCGUUCAGUACCAAGUCUCAGGGGAAACUUUGAGAUGGCCUUGCAAAGGGUAUGGUAAUAAGCUGACGGACAUGGUCCUAACCACGCAGCCAAGUCCUAAGUCAACAGAUCUUCUGUUGAUAUGGAUGCAGUUCACAGACUAAAUGUCGGUCGGGGAAGAUGUAUUCUUCUCAUAAGAUAUAGUCGGACCUCUCCUUAAUGGGAGCUAGCGGAUGAAGUGAUGCAACACUGGAGCCGCUGGGAACUAAUUUGUAUGCGAAAGUAUAUUGAUUAGUUUUGGAGUACUCGUGGUCG
Summary of the method: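 A randomised library covering all eight P1ex-region intron nucleotides was built with the intron in the knt kanamycin-resistance gene on pET-22b(+) and held in E. coli BL21(DE3). Cells were grown overnight at 37°C or 30°C on LB agar, with or without 25 μg/mL kanamycin, plus 100 μg/mL carbenicillin, 50 μM IPTG and 0.2% rhamnose, and pooled colonies were amplicon-sequenced on an Illumina HiSeq 2500. DiMSum fitness is the error-weighted combination of wild-type-normalised replicate fold changes, kanamycin versus none.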

| Sequence | self-splicing fitness (ln) (30 °C) | self-splicing fitness (ln) (37 °C) |
| --- | --- | --- |
| GAUCAGCAAUAUUACGUUCC | -4.36 ± 0.59 | – |
| CGUGAGCAAUAUUACGUAUA | -2.71 ± 0.18 | -1.55 ± 0.18 |
| UAGGAGCAAUAUUACGUAAU | – | -2.02 ± 0.68 |
| UGGGAGCAAUAUUACGGAGU | – | -2.77 ± 0.61 |
| UAUCAGCAAUAUUACGCCAC | – | -2.55 ± 0.62 |
| AAAGAGCAAUAUUACGGACC | -4.02 ± 0.52 | – |
| CUCUAGCAAUAUUACGACGC | -2.47 ± 1.1 | – |
| UUCUAGCAAUAUUACGAUCG | -3.71 ± 0.73 | – |
| CCACAGCAAUAUUACGCGCC | – | -1.69 ± 0.81 |
| GGAGAGCAAUAUUACGUUCC | -4.39 ± 1 | – |
| CUUUAGCAAUAUUACGCUCU | -2.15 ± 0.22 | -1.3 ± 0.26 |
| CGAUAGCAAUAUUACGCUGC | -3.15 ± 0.36 | -2.21 ± 0.5 |
| UCUGAGCAAUAUUACGAAAA | -2.44 ± 0.78 | – |
| UCGCAGCAAUAUUACGUCGC | – | -3.7 ± 0.51 |
| UGCGAGCAAUAUUACGACGC | – | -3.34 ± 1 |
| GAUGAGCAAUAUUACGGCCG | – | -1.1 ± 0.72 |
| CUUAAGCAAUAUUACGCUCU | -2.77 ± 0.13 | -2.81 ± 0.32 |
| UGGAAGCAAUAUUACGGUAU | – | -2.8 ± 0.75 |
| CAGUAGCAAUAUUACGCGAC | -4.08 ± 0.73 | – |
| GUGUAGCAAUAUUACGCUAU | -4.21 ± 0.76 | – |
| CAGGAGCAAUAUUACGCUUC | -2.76 ± 0.77 | -2.45 ± 0.76 |
| UACGAGCAAUAUUACGCUUG | – | -2.43 ± 0.55 |
| UGAGAGCAAUAUUACGGAGA | -2.16 ± 0.65 | -2.48 ± 1.1 |
| CGGUAGCAAUAUUACGUUUC | – | -0.927 ± 1.2 |
| AGUUAGCAAUAUUACGAAGA | -1.18 ± 0.4 | -2.26 ± 0.34 |

| Sequence | self-splicing fitness (ln) (30 °C) | self-splicing fitness (ln) (37 °C) |
| --- | --- | --- |
| CGUUAGCAAUAUUACGCAGU | -5.34 ± 0.72 | – |
| CAGCAGCAAUAUUACGAAAC | – | -4.03 ± 0.72 |
| CGUUAGCAAUAUUACGAAGA | – | -1.1 ± 0.63 |
| UACGAGCAAUAUUACGAUCU | – | -3.44 ± 0.52 |
| AUCGAGCAAUAUUACGGUAC | -4.49 ± 1 | – |
| CUCGAGCAAUAUUACGGCCU | -4.63 ± 0.6 | – |
| ACCCAGCAAUAUUACGGCCU | -0.518 ± 0.052 | 0.0547 ± 0.067 |
| UUGAAGCAAUAUUACGCGAU | – | -2.36 ± 0.55 |
| UUUUAGCAAUAUUACGACCC | – | -0.432 ± 0.84 |
| AGAGAGCAAUAUUACGCUCU | – | -0.693 ± 0.82 |
| UGCGAGCAAUAUUACGCGAC | – | -0.595 ± 1.4 |
| GGGGAGCAAUAUUACGACCU | -2.44 ± 1.1 | -0.503 ± 0.56 |
| AGCAAGCAAUAUUACGCCUC | – | 0.0117 ± 1.2 |
| GUGUAGCAAUAUUACGAGUG | – | -0.845 ± 0.65 |
| GGGGAGCAAUAUUACGCAGG | -3.4 ± 0.75 | – |
| UAUUAGCAAUAUUACGUCAC | -1.98 ± 0.53 | -1.59 ± 0.81 |
| CUUAAGCAAUAUUACGCCGA | – | -2.54 ± 0.76 |
| UCUUAGCAAUAUUACGACCC | -0.0715 ± 0.8 | -3.44 ± 1 |
| CAGGAGCAAUAUUACGCCAG | – | -1.83 ± 0.78 |
| CUGGAGCAAUAUUACGUCGU | -3.88 ± 0.23 | -2.39 ± 0.22 |
| CAUUAGCAAUAUUACGCGUG | -3.16 ± 0.15 | -2.89 ± 0.24 |
| CCCUAGCAAUAUUACGCAAC | -4.39 ± 0.72 | -3.99 ± 1 |
| UCGCAGCAAUAUUACGCGGA | -3.38 ± 0.61 | – |
| GUGGAGCAAUAUUACGUGAC | -2.79 ± 0.64 | – |
| CCGGAGCAAUAUUACGAUGC | – | -3.64 ± 1 |

| Sequence | self-splicing fitness (ln) (30 °C) | self-splicing fitness (ln) (37 °C) |
| --- | --- | --- |
| UAUGAGCAAUAUUACGGUCC | -4.4 ± 1 | -2.08 ± 1.1 |
| ACGGAGCAAUAUUACGUGGC | – | -4.12 ± 0.59 |
| CACCAGCAAUAUUACGGUCU | -1.44 ± 0.044 | -1.04 ± 0.057 |
| ACUUAGCAAUAUUACGAAUA | -2.63 ± 0.56 | – |
| UCUGAGCAAUAUUACGCAGC | – | -1.69 ± 0.67 |
| AUGGAGCAAUAUUACGCAAA | – | -2.13 ± 0.55 |
| GCACAGCAAUAUUACGGCUC | -0.268 ± 0.071 | 0.523 ± 0.076 |
| CCCGAGCAAUAUUACGUACC | – | -2.64 ± 0.77 |
| CAGUAGCAAUAUUACGUAAC | -3.47 ± 1 | – |
| GUAUAGCAAUAUUACGAACG | – | -1.31 ± 0.88 |
| CGCGAGCAAUAUUACGGACG | -3.45 ± 0.76 | – |
| CGGUAGCAAUAUUACGUUAA | -2.95 ± 0.62 | -2.44 ± 0.63 |
| UCACAGCAAUAUUACGCUUC | -4.3 ± 0.43 | -3.28 ± 0.43 |
| UAAGAGCAAUAUUACGUUAU | – | -3.18 ± 0.6 |
| UCUAAGCAAUAUUACGAAAC | -2.95 ± 0.53 | – |
| AUUUAGCAAUAUUACGCAAC | – | -2.52 ± 0.75 |
| GCGCAGCAAUAUUACGCAGC | -4.49 ± 0.59 | – |
| CCUCAGCAAUAUUACGCGCU | -2 ± 0.13 | -2.79 ± 0.25 |
| CUUCAGCAAUAUUACGCCUA | -2.73 ± 0.56 | – |
| GAAGAGCAAUAUUACGAAGG | -2.75 ± 0.17 | -3.62 ± 0.46 |
| GGUGAGCAAUAUUACGCUCG | -3.53 ± 0.6 | – |
| GGUAAGCAAUAUUACGGGCC | – | -0.705 ± 0.58 |
| CAUGAGCAAUAUUACGACUA | – | -3.58 ± 0.59 |
| CAGUAGCAAUAUUACGCCCU | -4 ± 0.54 | -1.3 ± 0.32 |
| CUCUAGCAAUAUUACGAAUA | – | -2.47 ± 1.1 |

| Sequence | self-splicing fitness (ln) (30 °C) | self-splicing fitness (ln) (37 °C) |
| --- | --- | --- |
| UGUUAGCAAUAUUACGAUGC | -3.61 ± 0.53 | -0.778 ± 1 |
| UUAGAGCAAUAUUACGACUC | – | -2.56 ± 0.78 |
| GGAUAGCAAUAUUACGGUCG | -0.0227 ± 0.077 | 0.199 ± 0.094 |
| CACUAGCAAUAUUACGCUCC | -3.7 ± 0.61 | – |
| ACCGAGCAAUAUUACGUCCC | -2.79 ± 1.2 | 0.905 ± 0.79 |
| CUCCAGCAAUAUUACGACUA | -2.47 ± 0.21 | -2.53 ± 0.29 |
| ACAGAGCAAUAUUACGUCCC | -3.12 ± 1.1 | – |
| UUGAAGCAAUAUUACGCGCC | -0.966 ± 0.63 | – |
| AUGGAGCAAUAUUACGAGAG | -4.35 ± 0.52 | – |
| CCAUAGCAAUAUUACGCGAA | – | -1.85 ± 0.52 |
| CGUAAGCAAUAUUACGAACG | -3.04 ± 0.18 | -1.76 ± 0.22 |
| CUGGAGCAAUAUUACGCCGA | – | -2.8 ± 1 |
| GCGUAGCAAUAUUACGCGAG | -4.09 ± 1 | -2.54 ± 0.27 |
| GUGGAGCAAUAUUACGCCAC | -0.86 ± 1.4 | – |
| AUCAAGCAAUAUUACGCGAU | -4.42 ± 0.33 | -3.08 ± 0.3 |
| GUGCAGCAAUAUUACGUGCC | -3.63 ± 0.61 | -3.41 ± 0.73 |
| CAUCAGCAAUAUUACGUGGC | -4.41 ± 0.27 | -2.72 ± 0.19 |
| CCUUAGCAAUAUUACGGAAC | -2.14 ± 0.6 | – |
| CUUAAGCAAUAUUACGGCUC | -3.77 ± 0.75 | -1.71 ± 0.67 |
| CUGGAGCAAUAUUACGACGU | -4.83 ± 0.51 | – |
| CAAAAGCAAUAUUACGGAAU | -3.21 ± 0.21 | -2.56 ± 0.17 |
| CUUAAGCAAUAUUACGGCAC | – | -3.19 ± 0.73 |
| GUGGAGCAAUAUUACGGACA | – | -1.58 ± 0.58 |
| CCAUAGCAAUAUUACGUCAC | – | -1.39 ± 1.2 |
| CUGAAGCAAUAUUACGCUGC | – | -2.32 ± 0.55 |

Whole records as entered above.
CAUCAGCAAUAUUACGUGGC in the list: self-splicing fitness (ln) (30 °C): -4.41 ± 0.27; self-splicing fitness (ln) (37 °C): -2.72 ± 0.19
CUUAAGCAAUAUUACGGCAC in the list: self-splicing fitness (ln) (37 °C): -3.19 ± 0.73
GUGGAGCAAUAUUACGGACA in the list: self-splicing fitness (ln) (37 °C): -1.58 ± 0.58
UUGAAGCAAUAUUACGCGCC in the list: self-splicing fitness (ln) (30 °C): -0.966 ± 0.63

More entries follow:

| Sequence | self-splicing fitness (ln) (30 °C) | self-splicing fitness (ln) (37 °C) |
| --- | --- | --- |
| UAAUAGCAAUAUUACGAUGC | – | -2.33 ± 0.57 |
| AGAGAGCAAUAUUACGCCUG | – | -2.08 ± 1.1 |
| CGUAAGCAAUAUUACGCCCC | -1.57 ± 0.51 | -1.13 ± 0.5 |
| CGGGAGCAAUAUUACGGACA | -2.24 ± 0.69 | -2.61 ± 0.63 |
| AUUGAGCAAUAUUACGCGUA | -3.63 ± 0.54 | – |
| AUCGAGCAAUAUUACGAGCC | -2.7 ± 0.76 | -0.735 ± 0.87 |
| GUGGAGCAAUAUUACGCAGC | -1.71 ± 0.53 | – |
| CCGUAGCAAUAUUACGACGG | -4.22 ± 0.72 | – |
| UGAGAGCAAUAUUACGGUCA | -0.647 ± 0.1 | -0.589 ± 0.13 |
| UUGUAGCAAUAUUACGCUGC | -2.43 ± 0.66 | -0.687 ± 0.59 |
| GUAUAGCAAUAUUACGAUUG | -3.48 ± 0.42 | -1.67 ± 0.3 |
| UUGGAGCAAUAUUACGGGCU | -4.44 ± 1 | – |
| UACUAGCAAUAUUACGAGCC | – | -1.72 ± 0.59 |
| CAUUAGCAAUAUUACGCACG | -0.832 ± 0.12 | 0.325 ± 0.14 |
| UUUGAGCAAUAUUACGGGGC | -2.5 ± 0.65 | – |
| CUUUAGCAAUAUUACGCUCA | -2.02 ± 0.52 | -1.47 ± 0.87 |
| CUCUAGCAAUAUUACGAGUC | -5.49 ± 1 | – |
| AGAUAGCAAUAUUACGGCCU | -0.604 ± 0.11 | 0.606 ± 0.14 |
| UAACAGCAAUAUUACGGCCC | – | -1.67 ± 0.67 |
| AUUGAGCAAUAUUACGGGCG | -4.6 ± 0.59 | – |
| GCUCAGCAAUAUUACGGUAC | -0.486 ± 0.13 | -0.709 ± 0.15 |
| UAAGAGCAAUAUUACGCUGC | -4.09 ± 1 | – |
